Results published in the supplement of paper PMC4604168 (melanoma cell lines).
The list shows a part of the results. Repeats are few or missing, and single values can be far off.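 Cells were imaged in 1,536-well plates, and nuclei stained with an antibody against cleaved PARP were counted against all DNA-stained nuclei to give the apoptosis fraction. Screening doses were chosen to leave most cells alive, and resting and induced cleaved-PARP levels differ strongly between cell lines.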

Key:
Test in all cases: cleaved PARP positive nuclei fraction relative to DMSO control; melanoma cells; higher = more apoptosis
Details in all cases: library dose: low library concentration; 72 h
[1] = test system: CBRC034 (line from a melanoma biopsy)
[2] = test system: COLO792
[3] = test system: COLO800
[4] = test system: COLO829
[5] = test system: G361
[6] = test system: IPC-298
[7] = test system: IST-MEL1
[8] = test system: LB2518-MEL
[9] = test system: LOXIMVI
[10] = test system: MEL-HO
[11] = test system: MZ2-MEL
[12] = test system: MeWo
[13] = test system: RPMI7951
[14] = test system: RVH-421
[15] = test system: SkMel28
[16] = test system: SkMel2
[17] = test system: SkMel30
[18] = test system: UACC62

SMILES: CCCCCCCCCCCCCCCCCCOP(=O)([O-])OC1CC[N+](C)(C)CC1 [Perifosine] + CCCS(=O)(=O)Nc1ccc(F)c(C(=O)c2c[nH]c3ncc(Cl)cc23)c1F [PLX4720] (first compound 0.4 µM, partner dose 0.08 µM)
- cleaved PARP positive nuclei fraction [1]: 114%
- cleaved PARP positive nuclei fraction [2]: 119%
- cleaved PARP positive nuclei fraction [3]: 62.2%
- cleaved PARP positive nuclei fraction [4]: 71.2%
- cleaved PARP positive nuclei fraction [5]: 60.5%
- cleaved PARP positive nuclei fraction [6]: 198%
- cleaved PARP positive nuclei fraction [7]: 191%
- cleaved PARP positive nuclei fraction [8]: 87.3%
- cleaved PARP positive nuclei fraction [9]: 37.5%
- cleaved PARP positive nuclei fraction [10]: 153%
- cleaved PARP positive nuclei fraction [11]: 109%
- cleaved PARP positive nuclei fraction [12]: 44.2%
- cleaved PARP positive nuclei fraction [13]: 30.7%
- cleaved PARP positive nuclei fraction [14]: 99.7%
- cleaved PARP positive nuclei fraction [15]: 24.7%
- cleaved PARP positive nuclei fraction [16]: 117%
- cleaved PARP positive nuclei fraction [17]: 152%
- cleaved PARP positive nuclei fraction [18]: 66.1%

SMILES: O=c1[nH]nc(Sc2ncc([N+](=O)[O-])s2)n1-c1ccc2c(c1)OCCO2 + Nc1ncn([C@H]2C[C@H](O)[C@@H](CO)O2)c(=O)n1 [decitabine] (first compound 0.2 µM, partner dose 0.1 µM)
- cleaved PARP positive nuclei fraction [1]: 63.6%
- cleaved PARP positive nuclei fraction [2]: 123%
- cleaved PARP positive nuclei fraction [3]: 84.8%
- cleaved PARP positive nuclei fraction [4]: 127%
- cleaved PARP positive nuclei fraction [5]: 92.9%
- cleaved PARP positive nuclei fraction [6]: 257%
- cleaved PARP positive nuclei fraction [7]: 101%
- cleaved PARP positive nuclei fraction [8]: 130%
- cleaved PARP positive nuclei fraction [9]: 152%
- cleaved PARP positive nuclei fraction [10]: 179%
- cleaved PARP positive nuclei fraction [11]: 119%
- cleaved PARP positive nuclei fraction [12]: 91.7%
- cleaved PARP positive nuclei fraction [13]: 53.4%
- cleaved PARP positive nuclei fraction [14]: 217%
- cleaved PARP positive nuclei fraction [15]: 43.6%
- cleaved PARP positive nuclei fraction [16]: 61.2%
- cleaved PARP positive nuclei fraction [17]: 26.9%
- cleaved PARP positive nuclei fraction [18]: 50%

SMILES: O=C(/C=C/c1cccnc1)NCCCCC1CCN(C(=O)c2ccccc2)CC1 + Cn1nnc2c(C(N)=O)ncn2c1=O [temozolomide] (first compound 0.01 µM, partner dose 2 µM)
- cleaved PARP positive nuclei fraction [1]: 868%
- cleaved PARP positive nuclei fraction [2]: 360%
- cleaved PARP positive nuclei fraction [3]: 454%
- cleaved PARP positive nuclei fraction [4]: 145%
- cleaved PARP positive nuclei fraction [5]: 4410%
- cleaved PARP positive nuclei fraction [6]: 214%
- cleaved PARP positive nuclei fraction [7]: 99.8%
- cleaved PARP positive nuclei fraction [8]: 101%
- cleaved PARP positive nuclei fraction [9]: 144%
- cleaved PARP positive nuclei fraction [10]: 183%
- cleaved PARP positive nuclei fraction [11]: 942%
- cleaved PARP positive nuclei fraction [12]: 24.9%
- cleaved PARP positive nuclei fraction [13]: 97.4%
- cleaved PARP positive nuclei fraction [14]: 91.6%
- cleaved PARP positive nuclei fraction [15]: 114%
- cleaved PARP positive nuclei fraction [16]: 2160%
- cleaved PARP positive nuclei fraction [17]: 28.3%
- cleaved PARP positive nuclei fraction [18]: 119%

SMILES: CCCCCCCCCCCCCCCCCCOP(=O)([O-])OC1CC[N+](C)(C)CC1 [Perifosine] + C[C@@H](N)c1ccc(C(=O)Nc2ccnc3[nH]ccc23)cc1 [RKI983] (first compound 0.4 µM, partner dose 0.4 µM)
- cleaved PARP positive nuclei fraction [1]: 82.7%
- cleaved PARP positive nuclei fraction [2]: 111%
- cleaved PARP positive nuclei fraction [3]: 77.8%
- cleaved PARP positive nuclei fraction [4]: 93%
- cleaved PARP positive nuclei fraction [5]: 92.6%
- cleaved PARP positive nuclei fraction [6]: 83.5%
- cleaved PARP positive nuclei fraction [7]: 61.6%
- cleaved PARP positive nuclei fraction [8]: 86.1%
- cleaved PARP positive nuclei fraction [9]: 165%
- cleaved PARP positive nuclei fraction [10]: 135%
- cleaved PARP positive nuclei fraction [11]: 123%
- cleaved PARP positive nuclei fraction [12]: 131%
- cleaved PARP positive nuclei fraction [13]: 135%
- cleaved PARP positive nuclei fraction [14]: 167%
- cleaved PARP positive nuclei fraction [15]: 92.1%
- cleaved PARP positive nuclei fraction [16]: 196%
- cleaved PARP positive nuclei fraction [17]: 95.9%
- cleaved PARP positive nuclei fraction [18]: 58.8%

SMILES: CC[C@]1(O)C[C@H]2CN(CCc3c([nH]c4ccccc34)[C@@](C(=O)OC)(c3cc4c(cc3OC)N(C=O)[C@H]3[C@@](O)(C(=O)OC)[C@H](OC(C)=O)[C@]5(CC)C=CCN6CC[C@]43[C@@H]65)C2)C1 [vincristine] + O=C(O)c1ccc2c(c1)nc(Nc1cccc(Cl)c1)c1ccncc12 [CX4945] (first compound 0.0001 µM, partner dose 0.4 µM)
- cleaved PARP positive nuclei fraction [1]: 34.9%
- cleaved PARP positive nuclei fraction [2]: 73.3%
- cleaved PARP positive nuclei fraction [3]: 120%
- cleaved PARP positive nuclei fraction [4]: 134%
- cleaved PARP positive nuclei fraction [5]: 102%
- cleaved PARP positive nuclei fraction [6]: 148%
- cleaved PARP positive nuclei fraction [7]: 124%
- cleaved PARP positive nuclei fraction [8]: 252%
- cleaved PARP positive nuclei fraction [9]: 101%
- cleaved PARP positive nuclei fraction [10]: 65.5%
- cleaved PARP positive nuclei fraction [11]: 41.6%
- cleaved PARP positive nuclei fraction [12]: 117%
- cleaved PARP positive nuclei fraction [13]: 120%
- cleaved PARP positive nuclei fraction [14]: 79.9%
- cleaved PARP positive nuclei fraction [15]: 86.5%
- cleaved PARP positive nuclei fraction [16]: 146%
- cleaved PARP positive nuclei fraction [17]: 261%
- cleaved PARP positive nuclei fraction [18]: 453%

SMILES: Cc1cn(-c2cc(NC(=O)c3ccc(C)c(Nc4nccc(-c5cccnc5)n4)c3)cc(C(F)(F)F)c2)cn1 [nilotinib] + Clc1ccc(Nc2nnc(Cc3ccncc3)c3ccccc23)cc1 [vatalanib] (first compound 0.2 µM, partner dose 2 µM)
- cleaved PARP positive nuclei fraction [1]: 117%
- cleaved PARP positive nuclei fraction [2]: 69.5%
- cleaved PARP positive nuclei fraction [3]: 33.3%
- cleaved PARP positive nuclei fraction [4]: 55.9%
- cleaved PARP positive nuclei fraction [5]: 87.4%
- cleaved PARP positive nuclei fraction [6]: 42.1%
- cleaved PARP positive nuclei fraction [7]: 60.3%
- cleaved PARP positive nuclei fraction [8]: 116%
- cleaved PARP positive nuclei fraction [9]: 119%
- cleaved PARP positive nuclei fraction [10]: 41.8%
- cleaved PARP positive nuclei fraction [11]: 84.5%
- cleaved PARP positive nuclei fraction [12]: 169%
- cleaved PARP positive nuclei fraction [13]: 71.5%
- cleaved PARP positive nuclei fraction [14]: 235%
- cleaved PARP positive nuclei fraction [15]: 31.4%
- cleaved PARP positive nuclei fraction [16]: 39.8%
- cleaved PARP positive nuclei fraction [17]: 101%
- cleaved PARP positive nuclei fraction [18]: 203%

SMILES: N#CC[C@H](C1CCCC1)n1cc(-c2ncnc3[nH]ccc23)cn1 [ruxolitinib] + O=C(/C=C/c1cccnc1)NCCCCC1CCN(C(=O)c2ccccc2)CC1 [FK866] (first compound 1 µM, partner dose 0.01 µM)
- cleaved PARP positive nuclei fraction [1]: 1640%
- cleaved PARP positive nuclei fraction [2]: 188%
- cleaved PARP positive nuclei fraction [3]: 67.7%
- cleaved PARP positive nuclei fraction [4]: 110%
- cleaved PARP positive nuclei fraction [5]: 2490%
- cleaved PARP positive nuclei fraction [6]: 381%
- cleaved PARP positive nuclei fraction [7]: 128%
- cleaved PARP positive nuclei fraction [8]: 118%
- cleaved PARP positive nuclei fraction [9]: 16.6%
- cleaved PARP positive nuclei fraction [10]: 306%
- cleaved PARP positive nuclei fraction [11]: 594%
- cleaved PARP positive nuclei fraction [12]: 25.4%
- cleaved PARP positive nuclei fraction [13]: 33.9%
- cleaved PARP positive nuclei fraction [14]: 251%
- cleaved PARP positive nuclei fraction [15]: 72.6%
- cleaved PARP positive nuclei fraction [16]: 940%
- cleaved PARP positive nuclei fraction [17]: 27.9%
- cleaved PARP positive nuclei fraction [18]: 36.3%

SMILES: CC[C@]1(O)C[C@H]2CN(CCc3c([nH]c4ccccc34)[C@@](C(=O)OC)(c3cc4c(cc3OC)N(C=O)[C@H]3[C@@](O)(C(=O)OC)[C@H](OC(C)=O)[C@]5(CC)C=CCN6CC[C@]43[C@@H]65)C2)C1 [vincristine] + C[C@]1(O)C[C@@H](c2nc(-c3ccc4ccc(-c5ccccc5)nc4c3)c3c(N)nccn32)C1 [OSI906] (first compound 0.0001 µM, partner dose 0.4 µM)
- cleaved PARP positive nuclei fraction [1]: 53.1%
- cleaved PARP positive nuclei fraction [2]: 61.5%
- cleaved PARP positive nuclei fraction [3]: 73.5%
- cleaved PARP positive nuclei fraction [4]: 131%
- cleaved PARP positive nuclei fraction [5]: 86.8%
- cleaved PARP positive nuclei fraction [6]: 25.8%
- cleaved PARP positive nuclei fraction [7]: 118%
- cleaved PARP positive nuclei fraction [8]: 59.6%
- cleaved PARP positive nuclei fraction [9]: 166%
- cleaved PARP positive nuclei fraction [10]: 56.5%
- cleaved PARP positive nuclei fraction [11]: 125%
- cleaved PARP positive nuclei fraction [12]: 138%
- cleaved PARP positive nuclei fraction [13]: 302%
- cleaved PARP positive nuclei fraction [14]: 87.8%
- cleaved PARP positive nuclei fraction [15]: 74.5%
- cleaved PARP positive nuclei fraction [16]: 52.3%
- cleaved PARP positive nuclei fraction [17]: 162%
- cleaved PARP positive nuclei fraction [18]: 31.6%
